For the experiment, the target named is GST-PKR 1-551 aa (full-length PKR) (UniProt P19525). The experiment in a line: pull-down; 1 µg GST fusion on glutathione-sepharose beads incubated with 120 µg cell protein extract (Huh-7 or replicon cells, with or without IFN-alpha) in 200 µl HNGT (20 mmol/L HEPES pH 7.9, 150 mmol/L NaCl, 10% glycerol, 0.1% Triton X-100) overnight at 4 °C; blot with anti-STAT3 or anti-p-STAT3; only the target purified.

Amino acid sequences for entries named in this document (tags omitted).
UniProt P19525: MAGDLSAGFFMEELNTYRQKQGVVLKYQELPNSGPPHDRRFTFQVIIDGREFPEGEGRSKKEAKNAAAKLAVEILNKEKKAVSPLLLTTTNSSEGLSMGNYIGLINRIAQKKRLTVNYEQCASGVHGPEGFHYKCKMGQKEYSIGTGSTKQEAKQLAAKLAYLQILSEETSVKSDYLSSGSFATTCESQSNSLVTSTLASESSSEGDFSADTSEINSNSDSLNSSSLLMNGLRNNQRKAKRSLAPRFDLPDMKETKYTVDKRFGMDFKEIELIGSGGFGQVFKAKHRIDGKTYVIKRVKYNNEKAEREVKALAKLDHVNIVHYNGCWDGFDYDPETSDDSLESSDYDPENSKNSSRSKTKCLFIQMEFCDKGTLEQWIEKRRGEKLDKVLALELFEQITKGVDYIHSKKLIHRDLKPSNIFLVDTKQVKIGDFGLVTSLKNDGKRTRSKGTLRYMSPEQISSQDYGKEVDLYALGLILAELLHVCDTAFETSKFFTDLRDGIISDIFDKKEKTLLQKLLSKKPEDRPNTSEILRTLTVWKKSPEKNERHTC
UniProt P40763: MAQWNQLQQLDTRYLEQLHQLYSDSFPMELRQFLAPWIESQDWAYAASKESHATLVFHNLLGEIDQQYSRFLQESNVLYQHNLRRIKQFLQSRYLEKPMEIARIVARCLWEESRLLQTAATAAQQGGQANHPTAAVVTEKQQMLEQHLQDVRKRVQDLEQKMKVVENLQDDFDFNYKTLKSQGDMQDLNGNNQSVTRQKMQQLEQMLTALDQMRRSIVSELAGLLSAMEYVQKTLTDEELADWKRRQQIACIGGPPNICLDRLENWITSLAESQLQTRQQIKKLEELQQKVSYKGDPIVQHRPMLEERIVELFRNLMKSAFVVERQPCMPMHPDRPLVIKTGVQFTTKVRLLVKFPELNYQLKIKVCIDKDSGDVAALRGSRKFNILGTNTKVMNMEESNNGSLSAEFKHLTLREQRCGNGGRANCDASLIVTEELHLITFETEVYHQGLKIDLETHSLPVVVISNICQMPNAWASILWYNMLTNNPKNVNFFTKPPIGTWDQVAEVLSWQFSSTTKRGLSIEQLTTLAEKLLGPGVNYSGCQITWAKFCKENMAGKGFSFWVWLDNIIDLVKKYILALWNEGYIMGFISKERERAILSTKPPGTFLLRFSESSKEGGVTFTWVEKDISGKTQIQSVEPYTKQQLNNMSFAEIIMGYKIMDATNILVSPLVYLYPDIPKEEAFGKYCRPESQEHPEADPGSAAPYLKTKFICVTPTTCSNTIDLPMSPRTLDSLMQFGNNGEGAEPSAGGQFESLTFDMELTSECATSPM

Results are given in words; binding and its absence hold for the method and conditions named. Binding seen in cells or lysates may run through a third protein. Some binding calls cover weakened binding; strength is not graded here.

Turning to “phosphorylated-STAT3 (p-STAT3) (from UniProt P40763 1-770)”, the binding entry is recorded as “binds”. The same measure for “signal transducer and activator of transcription 3 (STAT3) (from UniProt P40763 1-770)”: “binds”.

Values taken from PMC3271320.
